These are yes or no findings as the source states them, for the method shown. Binding calls can cover weak binding; strength is not graded here. Tags and fused reporters may be left off the sequences shown. For part of these data: In cells and extracts the contact can be indirect. Each block holds one molecule with its values, some of them ahead of it.
Tests used:
[1] = biological target: T1, GCN5-2×FLAG-2×HA (Ubipro::GCN5-2×FlAG-2×HA transgenic rice) (rice (Oryza sativa)) (UniProt Q338B9); assay: co-IP; 14-day-old seedlings of GCN5-2×FLAG-2×HA transgenic or wild-type rice; RIPA buffer; anti-FLAG M2 magnetic beads overnight at 4 °C; blots with anti-HA, anti-ACLA2, anti-ADA2
T1 sequence: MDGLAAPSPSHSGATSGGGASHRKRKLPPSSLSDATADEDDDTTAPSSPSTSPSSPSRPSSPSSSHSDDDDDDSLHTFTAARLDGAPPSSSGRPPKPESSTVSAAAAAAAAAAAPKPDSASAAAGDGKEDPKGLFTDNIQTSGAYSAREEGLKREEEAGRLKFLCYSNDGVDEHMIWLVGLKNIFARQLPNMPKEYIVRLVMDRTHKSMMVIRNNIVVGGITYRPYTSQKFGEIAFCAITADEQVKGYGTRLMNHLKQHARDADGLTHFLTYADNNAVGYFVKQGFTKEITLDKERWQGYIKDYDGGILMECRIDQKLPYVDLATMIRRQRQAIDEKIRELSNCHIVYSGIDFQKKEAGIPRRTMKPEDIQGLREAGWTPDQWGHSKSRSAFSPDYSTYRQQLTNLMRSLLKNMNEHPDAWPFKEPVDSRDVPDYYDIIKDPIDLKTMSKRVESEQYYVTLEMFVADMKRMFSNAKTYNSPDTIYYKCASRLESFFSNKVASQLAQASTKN

Chains of the proteins cited; added tags and fusions are not shown. Lines headed by an entry give the natural chain unless they say otherwise; changes in a name come on top.
UniProt Q2QZ86: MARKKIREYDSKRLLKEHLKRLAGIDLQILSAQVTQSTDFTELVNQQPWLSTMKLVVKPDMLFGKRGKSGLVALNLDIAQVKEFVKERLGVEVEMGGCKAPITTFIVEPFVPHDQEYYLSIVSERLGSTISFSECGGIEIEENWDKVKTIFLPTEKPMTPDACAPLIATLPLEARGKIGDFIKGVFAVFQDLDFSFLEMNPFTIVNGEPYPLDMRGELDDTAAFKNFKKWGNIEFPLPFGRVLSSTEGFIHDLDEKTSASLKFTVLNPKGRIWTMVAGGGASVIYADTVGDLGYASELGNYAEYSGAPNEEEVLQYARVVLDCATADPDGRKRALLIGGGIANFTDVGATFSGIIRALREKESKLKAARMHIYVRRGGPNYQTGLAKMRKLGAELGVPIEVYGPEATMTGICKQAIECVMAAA

[2] = biological target: T2, ADA2-FLAG (35S::ADA2-flag::NOS, tobacco) (rice (Oryza sativa)) (UniProt Q75LL6); assay: co-IP; tobacco leaves co-expressing GCN5, ADA2-FLAG (or ADA2-KRH/A-FLAG) and ACLA2-ACLB from one vector; anti-FLAG beads; histones tested by immunoblots
T2 sequence: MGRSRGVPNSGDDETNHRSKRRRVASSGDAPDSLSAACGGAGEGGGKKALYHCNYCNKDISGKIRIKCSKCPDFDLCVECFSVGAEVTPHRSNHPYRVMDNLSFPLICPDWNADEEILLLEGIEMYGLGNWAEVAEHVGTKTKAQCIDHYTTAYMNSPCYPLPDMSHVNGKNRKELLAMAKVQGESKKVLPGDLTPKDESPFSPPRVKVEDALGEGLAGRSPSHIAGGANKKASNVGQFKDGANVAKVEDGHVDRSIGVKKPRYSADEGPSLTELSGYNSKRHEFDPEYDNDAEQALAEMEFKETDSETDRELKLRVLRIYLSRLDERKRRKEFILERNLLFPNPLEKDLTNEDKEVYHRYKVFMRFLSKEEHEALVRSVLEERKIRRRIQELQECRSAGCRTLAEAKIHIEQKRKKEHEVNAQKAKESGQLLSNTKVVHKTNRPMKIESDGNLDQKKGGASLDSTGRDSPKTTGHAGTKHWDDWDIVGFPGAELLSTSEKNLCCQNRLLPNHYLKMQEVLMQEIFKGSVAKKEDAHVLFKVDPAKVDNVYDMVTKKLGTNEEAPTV

[3] = biological target: T3, ADA2 (rice), Gal4 DNA-binding domain fusion in pGBKT7 (rice (Oryza sativa)) (UniProt Q75LL6); assay: two-hybrid; ACLA2 in pGADT7 (AD), ADA2 or ACLB in pGBKT7 (BD); growth on SD-LTHA, control SD-LT
T3 sequence: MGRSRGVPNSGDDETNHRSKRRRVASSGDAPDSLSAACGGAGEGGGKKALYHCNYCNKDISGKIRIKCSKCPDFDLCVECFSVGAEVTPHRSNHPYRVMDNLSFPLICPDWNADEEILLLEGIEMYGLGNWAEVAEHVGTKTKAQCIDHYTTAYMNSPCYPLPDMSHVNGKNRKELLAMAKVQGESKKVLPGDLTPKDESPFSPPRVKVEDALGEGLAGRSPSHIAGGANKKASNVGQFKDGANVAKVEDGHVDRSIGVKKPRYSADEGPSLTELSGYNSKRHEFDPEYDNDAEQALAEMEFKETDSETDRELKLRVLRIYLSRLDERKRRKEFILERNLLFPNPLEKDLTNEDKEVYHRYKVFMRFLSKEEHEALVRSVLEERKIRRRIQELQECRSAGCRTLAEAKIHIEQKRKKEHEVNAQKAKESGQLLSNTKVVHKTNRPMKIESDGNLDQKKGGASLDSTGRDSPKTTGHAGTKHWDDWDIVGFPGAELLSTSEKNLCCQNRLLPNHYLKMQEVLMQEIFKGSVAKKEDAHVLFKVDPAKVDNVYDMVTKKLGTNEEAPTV

[4] = biological target: ACLA2-GST (rice (Oryza sativa)); assay: pull-down; GST or ACLA2-GST coupled with GST beads used to pull down ADA2-6×His; blots with anti-His and anti-GST
[5] = biological target: ACLA2-GFP (35S::ACLA2-GFP, rice protoplasts) (rice (Oryza sativa)); assay: co-IP; rice protoplasts co-transfected with 35S::ADA2-FLAG and 35S::ACLA2-GFP or GFP; lysed in RIPA buffer; anti-GFP magnetic beads overnight at 4 °C; blots with anti-GFP and anti-FLAG
[6] = biological target: ACLA2-NLuc (rice (Oryza sativa)); assay: split reporter; split-luciferase complementation (NLuc/CLuc of firefly luciferase) in Nicotiana benthamiana leaves, 48 h after infiltration, 1 mM luciferin

binding [1]: binds
Molecule: ACLA2, endogenous in rice seedlings (from UniProt Q2QZ86)

binding [2]: binds
Molecule: histone H3, endogenous in tobacco leaves

binding [3]: binds
Molecule: ACLA2 (rice ATP-citrate lyase subunit A2), Gal4 activation domain fusion in pGADT7 (from UniProt Q2QZ86)

binding [4]: binds
B1: ADA2-His (protein, UniProt Q75LL6 1-567)
chain: MGRSRGVPNSGDDETNHRSKRRRVASSGDAPDSLSAACGGAGEGGGKKALYHCNYCNKDISGKIRIKCSKCPDFDLCVECFSVGAEVTPHRSNHPYRVMDNLSFPLICPDWNADEEILLLEGIEMYGLGNWAEVAEHVGTKTKAQCIDHYTTAYMNSPCYPLPDMSHVNGKNRKELLAMAKVQGESKKVLPGDLTPKDESPFSPPRVKVEDALGEGLAGRSPSHIAGGANKKASNVGQFKDGANVAKVEDGHVDRSIGVKKPRYSADEGPSLTELSGYNSKRHEFDPEYDNDAEQALAEMEFKETDSETDRELKLRVLRIYLSRLDERKRRKEFILERNLLFPNPLEKDLTNEDKEVYHRYKVFMRFLSKEEHEALVRSVLEERKIRRRIQELQECRSAGCRTLAEAKIHIEQKRKKEHEVNAQKAKESGQLLSNTKVVHKTNRPMKIESDGNLDQKKGGASLDSTGRDSPKTTGHAGTKHWDDWDIVGFPGAELLSTSEKNLCCQNRLLPNHYLKMQEVLMQEIFKGSVAKKEDAHVLFKVDPAKVDNVYDMVTKKLGTNEEAPTV

binding [5]: binds
B2: ADA2-FLAG (35S::ADA2-FLAG, rice protoplasts) (protein, UniProt Q75LL6 1-567)
chain: MGRSRGVPNSGDDETNHRSKRRRVASSGDAPDSLSAACGGAGEGGGKKALYHCNYCNKDISGKIRIKCSKCPDFDLCVECFSVGAEVTPHRSNHPYRVMDNLSFPLICPDWNADEEILLLEGIEMYGLGNWAEVAEHVGTKTKAQCIDHYTTAYMNSPCYPLPDMSHVNGKNRKELLAMAKVQGESKKVLPGDLTPKDESPFSPPRVKVEDALGEGLAGRSPSHIAGGANKKASNVGQFKDGANVAKVEDGHVDRSIGVKKPRYSADEGPSLTELSGYNSKRHEFDPEYDNDAEQALAEMEFKETDSETDRELKLRVLRIYLSRLDERKRRKEFILERNLLFPNPLEKDLTNEDKEVYHRYKVFMRFLSKEEHEALVRSVLEERKIRRRIQELQECRSAGCRTLAEAKIHIEQKRKKEHEVNAQKAKESGQLLSNTKVVHKTNRPMKIESDGNLDQKKGGASLDSTGRDSPKTTGHAGTKHWDDWDIVGFPGAELLSTSEKNLCCQNRLLPNHYLKMQEVLMQEIFKGSVAKKEDAHVLFKVDPAKVDNVYDMVTKKLGTNEEAPTV

binding [6]: binds
B3: CLuc-ADA2 (protein, UniProt Q75LL6 1-567)
chain: MGRSRGVPNSGDDETNHRSKRRRVASSGDAPDSLSAACGGAGEGGGKKALYHCNYCNKDISGKIRIKCSKCPDFDLCVECFSVGAEVTPHRSNHPYRVMDNLSFPLICPDWNADEEILLLEGIEMYGLGNWAEVAEHVGTKTKAQCIDHYTTAYMNSPCYPLPDMSHVNGKNRKELLAMAKVQGESKKVLPGDLTPKDESPFSPPRVKVEDALGEGLAGRSPSHIAGGANKKASNVGQFKDGANVAKVEDGHVDRSIGVKKPRYSADEGPSLTELSGYNSKRHEFDPEYDNDAEQALAEMEFKETDSETDRELKLRVLRIYLSRLDERKRRKEFILERNLLFPNPLEKDLTNEDKEVYHRYKVFMRFLSKEEHEALVRSVLEERKIRRRIQELQECRSAGCRTLAEAKIHIEQKRKKEHEVNAQKAKESGQLLSNTKVVHKTNRPMKIESDGNLDQKKGGASLDSTGRDSPKTTGHAGTKHWDDWDIVGFPGAELLSTSEKNLCCQNRLLPNHYLKMQEVLMQEIFKGSVAKKEDAHVLFKVDPAKVDNVYDMVTKKLGTNEEAPTV
